Experimental data taken from US20090156489A1.
These are yes or no findings as the source states them, for the method shown. Some entries that bind do so weakly or less than the wild type. Tags and fused reporters may be left off the sequences shown.

Experiments:
[1] = target: T1, human Netrin-G1-his (purified Netrin-G1 protein with a C-terminus His tag) (human) (UniProt Q9Y2I2); experiment: solution binding assay, protein A bead pull-down, blot
T1 sequence (looked up): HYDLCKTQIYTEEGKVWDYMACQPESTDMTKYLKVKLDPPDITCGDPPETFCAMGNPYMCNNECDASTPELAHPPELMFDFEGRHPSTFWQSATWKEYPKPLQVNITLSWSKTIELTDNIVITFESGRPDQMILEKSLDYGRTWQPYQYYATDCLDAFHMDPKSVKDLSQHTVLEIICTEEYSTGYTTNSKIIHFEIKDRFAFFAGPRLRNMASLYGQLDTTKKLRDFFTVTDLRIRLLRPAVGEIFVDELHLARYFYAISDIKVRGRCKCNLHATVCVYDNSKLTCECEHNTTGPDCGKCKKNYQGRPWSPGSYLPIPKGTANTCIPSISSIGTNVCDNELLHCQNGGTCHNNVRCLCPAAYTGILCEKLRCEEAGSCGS

[2] = target: T1, human Netrin-G1-his (purified Netrin-G1 protein with a C-terminus His tag) (human); experiment: solid phase binding assay: Netrin-G1-his coated in microtiter wells, NGL-1-Fc in solution, biotinylated anti-human IgG Fc, streptavidin-HRP, TMB, OD450; specific binding = total minus cMet-Fc binding

B1: human NGL-1-Fc (extracellular domain of human NGL-1 fused to human IgG1 Fc) (Fc fusion, not shown: a dimerising Fc or GST)
chain: QTCPSVCSCSNQFSKVICVRKNLREVPDGISTNTRLLNLHENQIQIIKVNSFKHLRHLEILQLSRNHIRTIEIGAFNGLANLNTLELFDNRLTTIPNGAFVYLSKLKELWLRNNPIESIPSYAFNRIPSLRRLDLGELKRLSYISEGAFEGLSNLRYLNLAMCNLREIPNLTPLIKLDELDLSGNHLSAIRPGSFQGLMHLQKLWMIQSQIQVIERNAFDNLQSLVEINLAHNNLTLLPHDLFTPLHHLERIHLHHNPWNCNCDILWLSWWIKDMAPSNTACCARCNTPPNLKGRYIGELDQNYFTCYAPVIVEPPADLNVTEGMAAELKCRASTSLTSVSWITPNGTVMTHGAYKVRIAVLSDGTLNFTNVTVQDTGMYTCMVSNSVGNTTASATLNVTAATTTPFSYFSTVTVETMEPSQDEARTTDNNVGPTPVVDWETTNVTTSLTPQSTRSTEKTFTIPVTDINSGIPGIDEVMKTTK
- binding [1]: binds
- binding [2]: binds
